Results are given in words; binding and its absence hold for the method and conditions named. In cells and extracts the contact can be indirect. Binding calls can cover weak binding; strength is not graded here. Tags and fused reporters may be left off the sequences shown.
Target: T1, FLAG-tagged CD93 (UniProt O89103)
T1 sequence: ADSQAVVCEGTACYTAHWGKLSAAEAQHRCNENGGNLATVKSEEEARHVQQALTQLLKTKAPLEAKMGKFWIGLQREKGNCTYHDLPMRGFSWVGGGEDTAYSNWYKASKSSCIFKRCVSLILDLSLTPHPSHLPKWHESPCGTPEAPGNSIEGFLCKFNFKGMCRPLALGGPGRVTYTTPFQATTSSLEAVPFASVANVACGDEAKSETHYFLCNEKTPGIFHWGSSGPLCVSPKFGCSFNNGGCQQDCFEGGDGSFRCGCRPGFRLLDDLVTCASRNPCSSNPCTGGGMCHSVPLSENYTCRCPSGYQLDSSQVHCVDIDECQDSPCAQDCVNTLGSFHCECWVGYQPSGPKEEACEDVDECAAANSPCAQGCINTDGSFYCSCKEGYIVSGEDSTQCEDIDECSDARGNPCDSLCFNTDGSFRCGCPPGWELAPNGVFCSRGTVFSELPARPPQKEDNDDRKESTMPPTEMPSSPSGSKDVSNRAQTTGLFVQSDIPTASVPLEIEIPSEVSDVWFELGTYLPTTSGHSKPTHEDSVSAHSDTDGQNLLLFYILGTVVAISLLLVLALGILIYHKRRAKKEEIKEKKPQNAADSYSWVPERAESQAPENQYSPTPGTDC
Assay: co-IP; transfected cells lysed in CO-IP lysis buffer with protease inhibitor cocktail and PMSF; supernatant incubated with anti-HA-tag or anti-Flag-tag magnetic beads at 4 °C overnight; washed three times; bound proteins analysed by western blot

- binding: binds
Substance: HA-tagged IL17D (ligand)

Reference: article PMC11481185
